Results deposited as PubChem BioAssay AID1224828 (NIAID, 2016)

- Aim: 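Regulators linking TLR4 signalling to p65 nuclear translocation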 (primary screen)
- System: mouse RAW264.7 G9 macrophage reporter cells (GFP-p65, Tnf promoter-mCherry)
- Knock-down reagent: siRNA pool against mouse genes, 100 nM
- Timing: 2 days siRNA transfection, then 40 min LPS before fixation
- Treatment: LPS (Salmonella minnesota R595) at 10 ng/ml
- Detection: 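Imaged p65 nuclear translocation ratio, normalised to the plate median, converted to robust z-scores and averaged across two replicates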
- Direction: p65 translocation robust z-score: higher = more nuclear NF-kappaB p65 after LPS than the plate median; nuclear/cytoplasmic p65 ratio: higher = more nuclear NF-kappaB p65
- Call rule: 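Active if robust z is above 3.3 (negative regulators) or below -1.56, the Tlr4 control median (positive regulators); activity score 50 or more; control wells not called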
- Calls: active = hit (p65 shift raised or lowered); inactive = no clear change
This is one part, drawn at random, of about 17,000 reagents. 762 of them (4.5%) were called active. 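Active calls include both raised and lowered p65 entry, mostly lowered; wells with fewer than 50 cells lack a z-score.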 Raw values are not corrected between plates. Reagents against one gene are numbered here.

target gene,reagent no.,p65 translocation robust z-score,"nuclear/cytoplasmic p65 ratio, rep 1","nuclear/cytoplasmic p65 ratio, rep 2",low cell count flag,call
Mms19,1,1.09,1.8,1.89,enough cells to score,inactive
Rps6kl1,1,-0.49,1.58,1.31,enough cells to score,inactive
Ppp2r2b,1,-0.8,1.44,1.54,enough cells to score,inactive
Rabggta,1,-0.38,1.51,1.42,enough cells to score,inactive
Aox1,1,1.5,1.83,1.92,enough cells to score,inactive
Irf2,1,-1.25,1.24,1.28,enough cells to score,inactive
Foxo4,1,-0.07,1.44,1.33,enough cells to score,inactive
Mup3,1,-1.57,1.53,1.33,enough cells to score,active
Or4k40,1,-0.1,1.62,1.39,enough cells to score,inactive
Mmp8,1,0.78,1.33,1.44,enough cells to score,inactive
Asrgl1,1,0.21,1.52,1.65,enough cells to score,inactive
Wtip,1,-0.2,1.51,1.72,enough cells to score,inactive
Atp9b,1,1.35,1.65,1.86,enough cells to score,inactive
Dpp4,1,0.33,1.56,1.39,enough cells to score,inactive
Sprn,1,0.17,1.43,1.26,enough cells to score,inactive
Plagl1,1,1.45,1.61,1.34,enough cells to score,inactive
Arrb1,1,0.69,1.59,1.7,enough cells to score,inactive
Cntn1,1,0.67,1.69,1.34,enough cells to score,inactive
Ifitm10,1,-1.61,1.2,1.2,enough cells to score,active
Or2o1,1,-1.33,1.18,1.32,enough cells to score,inactive
Arg2,1,-1.34,1.35,1.38,enough cells to score,inactive
Fntb,1,1.97,1.66,1.66,enough cells to score,inactive
Sh3bgrl,1,,0,1.26,fewer than 50 cells per well; well left out of scoring,inactive
Eppin,1,1.05,1.5,1.4,enough cells to score,inactive
Slc35e3,1,,1.53,1.23,fewer than 50 cells per well; well left out of scoring,inactive
A730013G03Rik,1,1.09,1.63,1.56,enough cells to score,inactive
Uqcr10,1,-0.37,1.48,1.41,enough cells to score,inactive
Tfcp2,1,1.05,1.65,1.68,enough cells to score,inactive
Plbd2,1,-1.97,1.4,1.22,enough cells to score,active
B4galt7,1,-0.58,1.6,1.46,enough cells to score,inactive
9330175E14Rik,1,-0.25,1.29,1.61,enough cells to score,inactive
9330175E14Rik,2,,1.31,1.3,fewer than 50 cells per well; well left out of scoring,inactive
Selenok,1,-0.86,1.3,1.15,enough cells to score,inactive
Csf2,1,0.49,1.51,1.47,enough cells to score,inactive
Susd6,1,0.07,1.4,1.47,enough cells to score,inactive
5330438I03Rik,1,-0.55,1.29,1.39,enough cells to score,inactive
Prss43,1,1.77,1.59,1.3,enough cells to score,inactive
Fip1l1,1,1.64,1.86,1.66,enough cells to score,inactive
Hsd17b11,1,-0.13,1.47,1.35,enough cells to score,inactive
Rab27b,1,-0.5,1.46,1.58,enough cells to score,inactive
Or6c5,1,,1.17,1.12,fewer than 50 cells per well; well left out of scoring,inactive
Vmn1r23,1,0.09,1.4,1.24,enough cells to score,inactive
Tmem201,1,-0.55,1.51,1.5,enough cells to score,inactive
Mphosph9,1,-0.85,1.34,1.23,enough cells to score,inactive
Net1,1,0.81,1.48,1.51,enough cells to score,inactive
Pex19,1,0.04,1.34,1.52,enough cells to score,inactive
Gjc2,1,-0.98,1.21,1.33,enough cells to score,inactive

Next part (9 carried over from the part before).
target gene,reagent no.,p65 translocation robust z-score,"nuclear/cytoplasmic p65 ratio, rep 1","nuclear/cytoplasmic p65 ratio, rep 2",low cell count flag,call
Hsd17b11,1,-0.13,1.47,1.35,enough cells to score,inactive
Rab27b,1,-0.5,1.46,1.58,enough cells to score,inactive
Or6c5,1,,1.17,1.12,fewer than 50 cells per well; well left out of scoring,inactive
Vmn1r23,1,0.09,1.4,1.24,enough cells to score,inactive
Tmem201,1,-0.55,1.51,1.5,enough cells to score,inactive
Mphosph9,1,-0.85,1.34,1.23,enough cells to score,inactive
Net1,1,0.81,1.48,1.51,enough cells to score,inactive
Pex19,1,0.04,1.34,1.52,enough cells to score,inactive
Gjc2,1,-0.98,1.21,1.33,enough cells to score,inactive
Zfp979,1,-0.6,1.36,1.34,enough cells to score,inactive
Pigl,1,0.91,1.6,1.32,enough cells to score,inactive
Asic5,1,-0.01,1.55,1.74,enough cells to score,inactive
Tpra1,1,0.14,1.44,1.61,enough cells to score,inactive
Dnai1,1,-0.6,1.3,1.28,enough cells to score,inactive
Kat2b,1,0.11,1.49,1.4,enough cells to score,inactive
Msl3l2,1,1.52,1.59,1.47,enough cells to score,inactive
Itm2a,1,-0.65,1.42,1.38,enough cells to score,inactive
Ppm1j,1,0.91,1.65,1.5,enough cells to score,inactive
Zfyve19,1,0.07,1.46,1.26,enough cells to score,inactive
Pin1,1,-0.95,1.37,1.28,enough cells to score,inactive
Arl5b,1,-0.39,1.53,1.47,enough cells to score,inactive
Or8c9,1,,1.72,1.72,fewer than 50 cells per well; well left out of scoring,inactive
Ece1,1,0.51,1.57,1.4,enough cells to score,inactive
Or5al5,1,-0.33,1.57,1.37,enough cells to score,inactive
Pcdhga3,1,0.92,1.61,1.31,enough cells to score,inactive
Blzf1,1,0.75,1.86,1.6,enough cells to score,inactive
Nsfl1c,1,,1.35,1.22,fewer than 50 cells per well; well left out of scoring,inactive
Or10ab5,1,-0.66,1.36,1.19,enough cells to score,inactive
Cpsf7,1,-0.71,1.28,1.37,enough cells to score,inactive
Alg2,1,-0.57,1.45,1.67,enough cells to score,inactive
Gkn1,1,,1.17,1.62,fewer than 50 cells per well; well left out of scoring,inactive
Pf4,1,-0.56,1.49,1.7,enough cells to score,inactive
Il17ra,1,0.08,1.47,1.4,enough cells to score,inactive
Flacc1,1,-0.82,1.5,1.48,enough cells to score,inactive
Gmppb,1,-0.14,1.67,1.48,enough cells to score,inactive
Rdh7,1,0.75,1.54,1.28,enough cells to score,inactive
Aif1l,1,-0.61,1.4,1.3,enough cells to score,inactive
